Source: article PMC12175362
These are yes or no findings as the source states them, for the method shown. Binding seen in cells or lysates may run through a third protein. Some binding calls cover weakened binding; strength is not graded here. For part of these data: Where a sequence is shown, tags or fusion partners need not be part of it. One block for each substance: values may come before it.

Chains of the proteins cited; added tags and fusions are not shown. Lines headed by an entry give the natural chain unless they say otherwise; changes in a name come on top.
UniProt P06733: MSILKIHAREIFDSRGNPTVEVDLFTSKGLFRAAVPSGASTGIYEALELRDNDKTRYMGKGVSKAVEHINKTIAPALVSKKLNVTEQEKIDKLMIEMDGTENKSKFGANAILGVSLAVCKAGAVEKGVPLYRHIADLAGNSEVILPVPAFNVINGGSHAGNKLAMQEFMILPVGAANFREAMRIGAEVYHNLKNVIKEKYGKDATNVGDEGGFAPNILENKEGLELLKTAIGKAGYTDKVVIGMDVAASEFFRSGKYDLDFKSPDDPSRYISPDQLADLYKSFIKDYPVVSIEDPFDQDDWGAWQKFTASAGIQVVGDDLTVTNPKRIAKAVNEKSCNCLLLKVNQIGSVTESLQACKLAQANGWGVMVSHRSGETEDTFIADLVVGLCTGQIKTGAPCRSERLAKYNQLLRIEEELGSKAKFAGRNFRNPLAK
UniProt Q969H0: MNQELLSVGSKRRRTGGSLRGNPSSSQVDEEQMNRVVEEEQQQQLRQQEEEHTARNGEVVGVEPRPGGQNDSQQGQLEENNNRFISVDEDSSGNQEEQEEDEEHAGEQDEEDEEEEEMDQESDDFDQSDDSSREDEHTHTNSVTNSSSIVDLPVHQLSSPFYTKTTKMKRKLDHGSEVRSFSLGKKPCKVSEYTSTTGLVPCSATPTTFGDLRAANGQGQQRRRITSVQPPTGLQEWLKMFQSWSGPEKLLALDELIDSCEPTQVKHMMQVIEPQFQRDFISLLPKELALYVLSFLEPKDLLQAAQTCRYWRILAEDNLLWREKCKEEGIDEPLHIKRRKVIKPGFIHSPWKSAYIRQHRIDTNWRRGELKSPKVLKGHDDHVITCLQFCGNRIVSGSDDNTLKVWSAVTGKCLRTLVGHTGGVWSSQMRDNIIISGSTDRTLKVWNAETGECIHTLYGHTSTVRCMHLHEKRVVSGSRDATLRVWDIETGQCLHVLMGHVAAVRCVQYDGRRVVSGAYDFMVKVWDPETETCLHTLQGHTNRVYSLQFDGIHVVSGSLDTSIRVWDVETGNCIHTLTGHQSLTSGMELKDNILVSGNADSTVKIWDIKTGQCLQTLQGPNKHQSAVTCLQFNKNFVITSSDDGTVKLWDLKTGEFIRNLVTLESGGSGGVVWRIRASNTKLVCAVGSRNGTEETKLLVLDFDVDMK

What was measured:
[1] = target: T1, Doublecortin domain containing 2 (DCDC2) in HCCC-9810 and HuCC-T1 cells (human) (UniProt Q9UHG0); assay: co-IP; lysates of HCCC-9810 and HuCC-T1 cells; antibody overnight at 4 °C, protein A/G agarose, western blot
T1 sequence: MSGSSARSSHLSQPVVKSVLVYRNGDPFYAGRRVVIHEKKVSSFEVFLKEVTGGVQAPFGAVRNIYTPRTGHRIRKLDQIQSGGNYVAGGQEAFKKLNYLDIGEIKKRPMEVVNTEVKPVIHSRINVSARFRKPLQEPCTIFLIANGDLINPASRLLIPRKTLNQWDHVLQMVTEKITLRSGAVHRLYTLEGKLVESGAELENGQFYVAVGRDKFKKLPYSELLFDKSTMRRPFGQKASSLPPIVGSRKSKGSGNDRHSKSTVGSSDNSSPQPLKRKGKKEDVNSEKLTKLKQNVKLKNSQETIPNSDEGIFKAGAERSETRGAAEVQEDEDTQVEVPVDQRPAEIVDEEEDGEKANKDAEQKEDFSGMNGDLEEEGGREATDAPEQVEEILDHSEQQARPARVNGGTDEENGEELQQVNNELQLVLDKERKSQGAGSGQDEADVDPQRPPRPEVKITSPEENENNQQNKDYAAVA

[2] = target: Enolase 1 (ENO1) in HCCC-9810 and HuCC-T1 cells (human (endogenous in HCCC-9810 and HuCC-T1)) (UniProt P06733); assay: co-IP; ICC cells with or without DCDC2 overexpression; co-IP and western blot for ENO1, FBXW7 and NEDD4L
Flag-DCDC2 (human) = target: T2, Flag-DCDC2 (human) (UniProt Q9UHG0); assay: co-IP; HEK-293T cells co-transfected with Myc-ENO1 constructs and Flag-DCDC2; immunoprecipitated with anti-Flag antibody
T2 sequence: T1 sequence

binding [1]: binds
Substance: Enolase 1 (ENO1) in HCCC-9810 and HuCC-T1 cells (from UniProt P06733 1-434)

binding [2]: binds
Substance: FBXW7 (from UniProt Q969H0 1-707)

binding (Flag-DCDC2 (human)): binds
Substance: Myc-ENO1 140–434 (from UniProt P06733 140-434) (domain or fragment)
